Data as given in PubChem BioAssay AID1159578 (Peter MacCallum Cancer Centre, 2015).
This is an unselected part of about 18,000 reagents tested. Of all reagents, about 1,030 (5.7%) were called active. 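Inactive calls also include pools with fewer than 3300 nuclei, whose migration was not assessed.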 Raw values vary from plate to plate and are shown uncorrected. Unmarked entries are inactive.

Test: 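siRNA pools altering how lymphatic endothelial cells close a scratch wound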 (primary screen)
Cell system: human lymphatic endothelial cells
Reagent: siRNA pool against human genes, 40 nM
Time to read-out: 48 h after transfection
Read-out: 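Cells stained with dye and imaged after a scratch; covered wound area and nuclei counted, duplicates averaged, migration set against mock wells and turned into a robust z-score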
Reading the numbers: migration robust z-score: higher = faster migration into the scratch; migration relative to mock: higher = more scratch area covered than mock; nuclei per well: higher = more cells in the well
Hit rule: 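Pools averaging fewer than 3300 nuclei are never called; remaining pools count as changed when migration robust z lies outside -2 to 2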
Meaning of the calls: active = migration changed; inactive = no migration change, or too few cells

| gene | migration robust z-score | migration class with cell-count check | migration relative to mock | nuclei per well, duplicate mean |
| --- | --- | --- | --- | --- |
| FAM156A | -1.55 | migration z between -2 and 2; enough cells | 0.48 | 4279 |
| MARK4 | -0.57 | migration z between -2 and 2; enough cells | 0.7 | 3936 |
| RAB9A | 1.32 | migration z between -2 and 2; enough cells | 1.06 | 4691 |
| ABCB7 | -0.83 | migration z between -2 and 2; enough cells | 0.64 | 6481 |
| ZNF441 | -0.52 | migration z between -2 and 2; enough cells | 0.75 | 6076 |
| ANTKMT | -1.41 | migration z between -2 and 2; enough cells | 0.52 | 4470 |
| PIGS | 0.29 | migration z between -2 and 2; enough cells | 0.96 | 7604 |
| RUNDC1 | 0.62 | migration z between -2 and 2; enough cells | 0.92 | 5397 |
| MOS | 0.05 | migration z between -2 and 2; enough cells | 0.82 | 4301 |
| SLC12A6 | 0.88 | migration z between -2 and 2; enough cells | 0.98 | 5346 |
| ARHGAP42 | 1.9 | migration z between -2 and 2; enough cells | 1.38 | 5070 |
| CLPB | -1.2 | migration z between -2 and 2; enough cells | 0.57 | 4293 |
| OR1L8 | -0.88 | migration z between -2 and 2; enough cells | 0.66 | 5857 |
| KPNB1 | -1.61 | migration z between -2 and 2; enough cells | 0.5 | 4914 |
| TLE2 | 0.88 | migration z between -2 and 2; enough cells | 0.98 | 6450 |
| CFAP20 | -1.79 | migration z between -2 and 2; enough cells | 0.43 | 7383 |
| MRPS22 | 1.88 | migration z between -2 and 2; enough cells | 1.37 | 6577 |
| AOAH | 1.82 | migration z between -2 and 2; enough cells | 1.16 | 6475 |
| SLC35F5 | -0.03 | migration z between -2 and 2; enough cells | 0.88 | 6306 |
| FANCB | 0.86 | migration z between -2 and 2; enough cells | 1.11 | 5490 |
| NEU2 | -0.78 | migration z between -2 and 2; enough cells | 0.68 | 4452 |
| LIF | -2.7 | under 3300 nuclei; migration not judged | 0.29 | 3283 |
| SDR16C5 | 0.42 | migration z between -2 and 2; enough cells | 0.89 | 5960 |
| CBFB | 1.27 | migration z between -2 and 2; enough cells | 1.05 | 5383 |
| ADI1 | 1.5 | migration z between -2 and 2; enough cells | 1.09 | 5906 |
| ADCY9 | -0.16 | migration z between -2 and 2; enough cells | 0.84 | 6496 |
| LY6D | -0.84 | migration z between -2 and 2; enough cells | 0.66 | 6838 |
| CENPC | -0.9 | migration z between -2 and 2; enough cells | 0.66 | 5300 |
| BTN2A1 | 0.34 | migration z between -2 and 2; enough cells | 0.98 | 5607 |
| TTLL1 | 0.26 | migration z between -2 and 2; enough cells | 0.86 | 5106 |
| CFAP157 | -1.2 | migration z between -2 and 2; enough cells | 0.57 | 5758 |
| KCNH1 | 0.1 | migration z between -2 and 2; enough cells | 0.82 | 5617 |
| SULF1 | 0.68 | migration z between -2 and 2; enough cells | 0.94 | 4606 |
| RHBDF2 | -0.85 | migration z between -2 and 2; enough cells | 0.67 | 5927 |
| SMIM21 | -1.89 | migration z between -2 and 2; enough cells | 0.4 | 3512 |
| LYPD8 | 0.2 | migration z between -2 and 2; enough cells | 0.94 | 5095 |
| ANXA8 | 2.62 (active) | migration z above 2; enough cells | 1.56 | 6126 |
| VPS29 | 0.39 | migration z between -2 and 2; enough cells | 0.88 | 6766 |
| DCAF13 | -0.5 | migration z between -2 and 2; enough cells | 0.76 | 6472 |
| DTD1 | 2.67 (active) | migration z above 2; enough cells | 1.58 | 6714 |
| CHST3 | -0.5 | migration z between -2 and 2; enough cells | 0.71 | 4552 |
| TUBA8 | -0.9 | migration z between -2 and 2; enough cells | 0.63 | 6517 |
| SLCO1B1 | -1.82 | migration z between -2 and 2; enough cells | 0.46 | 5024 |
| MMP14 | 0.52 | migration z between -2 and 2; enough cells | 0.9 | 5200 |
| TIFA | 0.53 | migration z between -2 and 2; enough cells | 1.02 | 5590 |
| PCDHGB1 | -0.16 | migration z between -2 and 2; enough cells | 0.84 | 6136 |
| LMAN1 | -0.58 | migration z between -2 and 2; enough cells | 0.74 | 4376 |
| ACSL4 | -0.96 | migration z between -2 and 2; enough cells | 0.62 | 4812 |
| PAPOLB | 0.57 | migration z between -2 and 2; enough cells | 0.92 | 5390 |
| ANKZF1 | -1.75 | under 3300 nuclei; migration not judged | 0.44 | 2318 |
| SHBG | -1.54 | migration z between -2 and 2; enough cells | 0.48 | 6416 |
| PIK3C2G | -0.76 | migration z between -2 and 2; enough cells | 0.66 | 4346 |
| SH3PXD2B | 1.1 | migration z between -2 and 2; enough cells | 1.17 | 6179 |
| SLC35E1 | 0.78 | migration z between -2 and 2; enough cells | 1.08 | 6554 |
| GPANK1 | -1.64 | migration z between -2 and 2; enough cells | 0.46 | 5832 |
| SNED1 | -0.18 | migration z between -2 and 2; enough cells | 0.83 | 6260 |
| LSM12 | 1.7 | migration z between -2 and 2; enough cells | 1.32 | 6290 |

7 of these entries, set out differently:
{"gene": "ADI1", "migration robust z-score": 1.5, "migration class with cell-count check": "migration z between -2 and 2; enough cells", "migration relative to mock": 1.09, "nuclei per well, duplicate mean": 5906}
{"gene": "ADCY9", "migration robust z-score": -0.16, "migration class with cell-count check": "migration z between -2 and 2; enough cells", "migration relative to mock": 0.84, "nuclei per well, duplicate mean": 6496}
{"gene": "LY6D", "migration robust z-score": -0.84, "migration class with cell-count check": "migration z between -2 and 2; enough cells", "migration relative to mock": 0.66, "nuclei per well, duplicate mean": 6838}
{"gene": "CENPC", "migration robust z-score": -0.9, "migration class with cell-count check": "migration z between -2 and 2; enough cells", "migration relative to mock": 0.66, "nuclei per well, duplicate mean": 5300}
{"gene": "BTN2A1", "migration robust z-score": 0.34, "migration class with cell-count check": "migration z between -2 and 2; enough cells", "migration relative to mock": 0.98, "nuclei per well, duplicate mean": 5607}
{"gene": "TTLL1", "migration robust z-score": 0.26, "migration class with cell-count check": "migration z between -2 and 2; enough cells", "migration relative to mock": 0.86, "nuclei per well, duplicate mean": 5106}
{"gene": "CFAP157", "migration robust z-score": -1.2, "migration class with cell-count check": "migration z between -2 and 2; enough cells", "migration relative to mock": 0.57, "nuclei per well, duplicate mean": 5758}
